Results from article doi:10.1101/2020.05.27.118315.

How the values were obtained:
[1] = molecular target: T1, Gal4-BD-Snx4 (S. cerevisiae) (UniProt P47057); assay: two-hybrid
T1 sequence: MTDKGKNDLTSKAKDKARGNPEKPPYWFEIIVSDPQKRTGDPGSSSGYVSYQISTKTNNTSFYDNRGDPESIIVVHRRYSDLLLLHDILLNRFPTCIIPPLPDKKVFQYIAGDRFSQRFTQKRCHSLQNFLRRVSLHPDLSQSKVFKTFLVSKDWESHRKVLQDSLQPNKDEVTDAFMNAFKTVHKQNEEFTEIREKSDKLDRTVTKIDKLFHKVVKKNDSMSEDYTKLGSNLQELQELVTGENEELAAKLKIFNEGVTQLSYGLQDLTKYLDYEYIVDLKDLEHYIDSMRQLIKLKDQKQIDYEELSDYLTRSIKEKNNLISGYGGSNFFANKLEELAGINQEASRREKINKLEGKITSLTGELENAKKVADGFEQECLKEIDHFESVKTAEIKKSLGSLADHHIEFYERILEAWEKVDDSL

[2] = molecular target: Gal4-BD-Snx4 BAR binding domain construct (S. cerevisiae); assay: two-hybrid

Molecule: Gal4-AD-Med13 construct, structured C-terminal tail domain (S. cerevisiae) (domain or fragment)
- binding [1]: binds

B1: Gal4-AD-Med13^907-1163 (domain or fragment, UniProt P38931 907-1163)
chain: KFYNMKQPYVFVKKHHELIKVKHDSQPFIKFLNFRPPNGIKNFKSLLLSSSFKEDCLSFAPTLSQTYINQELGFCELLKLTNEDPPGLMYLKAFDKNKLLLLAAQIVSYCSNNKNSIKNVPPILIILPLDNATLTELVDKANIFQVIKNEVCAKMPNIELYLKVIPMDFIRNVLVTVDQYVNVAISIYNMLPPKSVKFTHIAHTLPEKVNFRTMQQQQMQQQQQQQQQQQNNSTGSSSIIYYDSYIHLAYSRSVDKE
- binding [2]: binds

No constants are given. Whether binding was seen depends on the method and setting. A result given as binding can be weak or reduced; the word gives no strength. Where a sequence is shown, tags or fusion partners need not be part of it.
